Values joined by “and” are separate entries in the source; they are usually repeats but may differ in a detail not shown here. Identical values can stand only once.

1 molecule from publication PMC6946680, “Modulation of brain cation-Cl^− cotransport via the SPAK kinase inhibitor ZT-1a” (Nature Communications, 2020) can be followed below.

The subject of assay [1] is KCC3. Description: 86Rb+ uptake assay for KCC3 activity in HEK-293 cells. The class given is cell-based, human. Also noted: key to 86Rb+ uptake: 86Rb+ uptake CPM normalized per mg protein (10-min uptake). Particulars: for 86Rb+ uptake: Fig 3a, KCC3 wt + Furo (1 mM), replicates.
Assay [2] relates to HEK-293 cells. Description: 86Rb+ uptake assay in empty-vector-transfected HEK-293 cells. Type of assay: cell-based, human. Also noted: key: 86Rb+ uptake in CPM per mg protein. Particulars: Fig 3a, Empty V + Furo (1 mM), ouabain + bumetanide, replicates.

Regarding `NS(=O)(=O)c1cc(C(=O)O)c(NCc2ccco2)cc1Cl` [furosemide, reference compound], in assay [1] (1 mM furosemide, n = 3), the “K+ flux (86Rb+ uptake) of cells transfected with empty vector or KCC3 wt cDNA” value was “significantly decreased K^+ flux”. In addition, the “86Rb+ uptake” value in assay [1] (Hypotonic low Cl-) is 497.9 and 459.2 and 631.9 and 539.1 and 604.9 and 546.4; in assay [1] (Isotonic control) it was 873.2 and 629.5 and 994.7 and 699.2 and 901.5 and 768.9; in assay [2] (Hypotonic low Cl-), 189.8 and 174.8 and 155.2 and 147.3 and 136.5 and 163.3; in assay [2] (Isotonic control), 234.2 and 198.6 and 207.4 and 167.8 and 253.1 and 208.5.
